# Laboratory results reported in the supplement of paper PMC10849652.
# Amino acid sequences for entries named in this document (tags omitted). A change or cut given only in a name is not applied to a line headed by its entry.
# UniProt O95969: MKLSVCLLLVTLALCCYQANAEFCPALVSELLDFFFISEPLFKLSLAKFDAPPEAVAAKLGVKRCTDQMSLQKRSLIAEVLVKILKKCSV
# UniProt Q96EU6: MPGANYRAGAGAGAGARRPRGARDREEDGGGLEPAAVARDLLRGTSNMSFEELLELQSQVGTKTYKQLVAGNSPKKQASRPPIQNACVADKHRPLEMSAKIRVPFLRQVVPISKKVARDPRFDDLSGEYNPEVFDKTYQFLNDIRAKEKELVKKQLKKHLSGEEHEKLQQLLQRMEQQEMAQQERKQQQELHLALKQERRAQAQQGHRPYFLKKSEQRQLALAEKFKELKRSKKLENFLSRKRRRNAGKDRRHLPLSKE
# UniProt Q9UIL1: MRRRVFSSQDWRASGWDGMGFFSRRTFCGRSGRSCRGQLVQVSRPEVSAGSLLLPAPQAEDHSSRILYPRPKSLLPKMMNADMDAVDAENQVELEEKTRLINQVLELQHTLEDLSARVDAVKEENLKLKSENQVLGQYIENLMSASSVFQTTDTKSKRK
# UniProt O75056, whole entry, looked up: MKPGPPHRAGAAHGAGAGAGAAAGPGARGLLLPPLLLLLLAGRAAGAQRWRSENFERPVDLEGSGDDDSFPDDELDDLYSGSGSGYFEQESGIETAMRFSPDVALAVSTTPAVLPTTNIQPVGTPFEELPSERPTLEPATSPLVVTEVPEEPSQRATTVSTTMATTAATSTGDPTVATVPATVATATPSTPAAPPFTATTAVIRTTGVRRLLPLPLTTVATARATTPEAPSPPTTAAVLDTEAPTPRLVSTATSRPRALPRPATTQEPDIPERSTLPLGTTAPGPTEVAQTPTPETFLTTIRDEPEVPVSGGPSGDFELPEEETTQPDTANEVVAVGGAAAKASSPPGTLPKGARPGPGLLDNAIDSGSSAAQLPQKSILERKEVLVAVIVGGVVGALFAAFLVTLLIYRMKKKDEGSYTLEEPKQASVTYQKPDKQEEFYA
# UniProt Q96FQ6: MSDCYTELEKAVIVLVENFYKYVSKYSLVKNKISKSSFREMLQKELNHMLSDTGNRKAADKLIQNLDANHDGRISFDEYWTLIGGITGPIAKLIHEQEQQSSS
# UniProt P60903, whole entry, looked up: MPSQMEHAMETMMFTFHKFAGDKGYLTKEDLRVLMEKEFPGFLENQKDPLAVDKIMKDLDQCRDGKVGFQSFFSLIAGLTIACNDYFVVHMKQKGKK
# UniProt P35499, whole entry, looked up: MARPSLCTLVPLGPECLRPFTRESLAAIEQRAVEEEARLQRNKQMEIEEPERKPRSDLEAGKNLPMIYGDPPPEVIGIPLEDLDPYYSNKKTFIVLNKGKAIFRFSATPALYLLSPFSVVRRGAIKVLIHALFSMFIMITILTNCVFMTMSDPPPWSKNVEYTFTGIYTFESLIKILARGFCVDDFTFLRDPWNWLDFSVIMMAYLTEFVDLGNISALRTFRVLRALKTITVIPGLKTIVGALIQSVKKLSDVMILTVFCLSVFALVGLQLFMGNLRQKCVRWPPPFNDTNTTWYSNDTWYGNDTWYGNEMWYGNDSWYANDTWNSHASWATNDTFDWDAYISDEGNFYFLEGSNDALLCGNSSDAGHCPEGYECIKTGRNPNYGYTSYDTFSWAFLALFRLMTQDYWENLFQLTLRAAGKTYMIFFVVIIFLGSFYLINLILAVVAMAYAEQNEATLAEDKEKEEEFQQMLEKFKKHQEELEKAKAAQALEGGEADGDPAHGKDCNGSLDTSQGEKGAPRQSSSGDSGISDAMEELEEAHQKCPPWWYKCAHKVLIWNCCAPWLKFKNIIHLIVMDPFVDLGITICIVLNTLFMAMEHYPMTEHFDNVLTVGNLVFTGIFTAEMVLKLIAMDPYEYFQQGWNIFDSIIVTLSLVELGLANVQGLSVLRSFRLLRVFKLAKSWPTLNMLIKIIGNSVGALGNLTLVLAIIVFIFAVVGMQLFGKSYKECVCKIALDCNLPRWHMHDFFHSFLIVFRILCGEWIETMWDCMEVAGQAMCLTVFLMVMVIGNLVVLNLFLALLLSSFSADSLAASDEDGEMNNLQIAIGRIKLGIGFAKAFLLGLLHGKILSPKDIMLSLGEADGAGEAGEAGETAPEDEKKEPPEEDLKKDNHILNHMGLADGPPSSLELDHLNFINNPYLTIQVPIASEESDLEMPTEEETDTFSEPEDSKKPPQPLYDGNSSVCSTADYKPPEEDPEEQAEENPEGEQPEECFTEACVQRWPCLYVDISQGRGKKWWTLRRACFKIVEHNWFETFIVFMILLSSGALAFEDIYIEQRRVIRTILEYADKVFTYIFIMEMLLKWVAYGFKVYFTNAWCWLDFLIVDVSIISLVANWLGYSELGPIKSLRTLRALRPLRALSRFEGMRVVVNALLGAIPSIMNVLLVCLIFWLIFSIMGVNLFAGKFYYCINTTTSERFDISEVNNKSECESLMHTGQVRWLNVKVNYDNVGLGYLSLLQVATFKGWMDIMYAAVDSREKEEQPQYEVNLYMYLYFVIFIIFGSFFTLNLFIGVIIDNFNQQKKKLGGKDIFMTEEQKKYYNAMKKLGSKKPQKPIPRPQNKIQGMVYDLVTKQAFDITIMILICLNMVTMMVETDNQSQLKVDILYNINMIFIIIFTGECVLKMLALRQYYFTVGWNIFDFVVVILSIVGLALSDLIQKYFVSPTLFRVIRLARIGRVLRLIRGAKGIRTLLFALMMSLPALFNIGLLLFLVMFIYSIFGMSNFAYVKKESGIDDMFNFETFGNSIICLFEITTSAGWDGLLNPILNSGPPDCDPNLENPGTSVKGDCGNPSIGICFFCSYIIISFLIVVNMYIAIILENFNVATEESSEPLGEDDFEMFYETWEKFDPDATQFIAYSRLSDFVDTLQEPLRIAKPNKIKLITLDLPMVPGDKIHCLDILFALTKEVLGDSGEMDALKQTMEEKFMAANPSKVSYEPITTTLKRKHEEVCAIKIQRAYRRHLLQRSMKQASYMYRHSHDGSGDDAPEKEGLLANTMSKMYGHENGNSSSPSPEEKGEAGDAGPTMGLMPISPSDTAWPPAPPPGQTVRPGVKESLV
# UniProt P29034: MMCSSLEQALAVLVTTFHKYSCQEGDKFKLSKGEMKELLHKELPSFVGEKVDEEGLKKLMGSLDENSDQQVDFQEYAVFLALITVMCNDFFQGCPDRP
# UniProt Q9HCY8: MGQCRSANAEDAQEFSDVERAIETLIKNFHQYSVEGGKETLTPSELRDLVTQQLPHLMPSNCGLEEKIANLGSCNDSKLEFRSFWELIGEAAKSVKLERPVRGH
# UniProt Q14160: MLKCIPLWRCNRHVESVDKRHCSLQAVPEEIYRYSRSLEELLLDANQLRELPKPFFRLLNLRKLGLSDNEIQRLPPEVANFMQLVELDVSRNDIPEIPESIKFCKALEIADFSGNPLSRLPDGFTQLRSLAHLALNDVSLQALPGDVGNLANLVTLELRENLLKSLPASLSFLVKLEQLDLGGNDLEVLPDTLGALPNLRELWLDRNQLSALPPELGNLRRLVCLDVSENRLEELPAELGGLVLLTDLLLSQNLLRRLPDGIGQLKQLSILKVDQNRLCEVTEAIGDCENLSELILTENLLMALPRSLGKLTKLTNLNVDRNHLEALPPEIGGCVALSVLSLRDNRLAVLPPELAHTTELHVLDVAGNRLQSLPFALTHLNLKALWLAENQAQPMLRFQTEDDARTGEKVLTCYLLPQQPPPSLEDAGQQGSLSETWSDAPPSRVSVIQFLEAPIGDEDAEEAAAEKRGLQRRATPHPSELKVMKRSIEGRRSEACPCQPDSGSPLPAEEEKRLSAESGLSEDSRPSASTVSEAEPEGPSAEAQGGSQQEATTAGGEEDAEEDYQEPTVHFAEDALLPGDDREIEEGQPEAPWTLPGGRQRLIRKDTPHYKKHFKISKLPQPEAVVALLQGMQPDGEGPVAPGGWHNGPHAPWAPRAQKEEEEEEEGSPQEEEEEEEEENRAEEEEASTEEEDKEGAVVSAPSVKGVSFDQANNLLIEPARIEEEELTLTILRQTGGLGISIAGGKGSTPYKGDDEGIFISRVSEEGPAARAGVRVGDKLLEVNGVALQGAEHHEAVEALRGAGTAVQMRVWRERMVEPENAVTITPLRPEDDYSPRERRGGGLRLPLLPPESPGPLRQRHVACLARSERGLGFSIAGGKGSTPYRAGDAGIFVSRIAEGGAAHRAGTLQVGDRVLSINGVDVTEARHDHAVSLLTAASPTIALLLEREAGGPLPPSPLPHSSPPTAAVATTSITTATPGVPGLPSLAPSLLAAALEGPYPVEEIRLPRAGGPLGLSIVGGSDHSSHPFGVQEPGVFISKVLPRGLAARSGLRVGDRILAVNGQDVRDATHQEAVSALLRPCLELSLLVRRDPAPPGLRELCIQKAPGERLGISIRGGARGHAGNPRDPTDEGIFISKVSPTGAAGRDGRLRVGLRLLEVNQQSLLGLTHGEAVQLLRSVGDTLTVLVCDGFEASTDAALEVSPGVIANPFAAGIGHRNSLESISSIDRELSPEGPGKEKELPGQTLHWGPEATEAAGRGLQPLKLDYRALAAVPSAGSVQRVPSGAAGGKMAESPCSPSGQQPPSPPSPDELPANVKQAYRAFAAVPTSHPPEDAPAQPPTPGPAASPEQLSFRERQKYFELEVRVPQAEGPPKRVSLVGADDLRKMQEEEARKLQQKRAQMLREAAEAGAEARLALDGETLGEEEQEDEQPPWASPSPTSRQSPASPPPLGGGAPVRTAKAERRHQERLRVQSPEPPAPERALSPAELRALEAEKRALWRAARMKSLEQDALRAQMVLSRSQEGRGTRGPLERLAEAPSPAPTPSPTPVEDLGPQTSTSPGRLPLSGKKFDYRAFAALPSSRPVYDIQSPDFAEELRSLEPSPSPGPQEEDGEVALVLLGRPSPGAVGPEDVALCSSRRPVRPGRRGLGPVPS
# UniProt Q9UPU9: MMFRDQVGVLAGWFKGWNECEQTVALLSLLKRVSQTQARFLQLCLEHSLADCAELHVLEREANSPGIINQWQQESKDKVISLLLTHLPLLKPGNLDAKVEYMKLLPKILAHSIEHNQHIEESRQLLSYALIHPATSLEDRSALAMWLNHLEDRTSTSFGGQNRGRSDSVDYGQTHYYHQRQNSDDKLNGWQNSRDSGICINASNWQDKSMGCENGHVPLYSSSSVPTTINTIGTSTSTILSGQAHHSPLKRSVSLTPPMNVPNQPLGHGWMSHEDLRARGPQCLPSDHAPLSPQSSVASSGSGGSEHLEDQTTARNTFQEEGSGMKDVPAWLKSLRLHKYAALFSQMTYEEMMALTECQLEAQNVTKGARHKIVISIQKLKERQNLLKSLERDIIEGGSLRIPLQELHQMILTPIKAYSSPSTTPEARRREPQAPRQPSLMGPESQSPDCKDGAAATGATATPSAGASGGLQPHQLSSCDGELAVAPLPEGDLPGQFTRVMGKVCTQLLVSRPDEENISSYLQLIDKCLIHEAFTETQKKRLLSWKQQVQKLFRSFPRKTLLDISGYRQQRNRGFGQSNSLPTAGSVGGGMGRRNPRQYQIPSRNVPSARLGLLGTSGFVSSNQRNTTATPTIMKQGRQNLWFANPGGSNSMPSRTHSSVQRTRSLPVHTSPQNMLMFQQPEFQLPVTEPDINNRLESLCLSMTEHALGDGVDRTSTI
# UniProt Q92622: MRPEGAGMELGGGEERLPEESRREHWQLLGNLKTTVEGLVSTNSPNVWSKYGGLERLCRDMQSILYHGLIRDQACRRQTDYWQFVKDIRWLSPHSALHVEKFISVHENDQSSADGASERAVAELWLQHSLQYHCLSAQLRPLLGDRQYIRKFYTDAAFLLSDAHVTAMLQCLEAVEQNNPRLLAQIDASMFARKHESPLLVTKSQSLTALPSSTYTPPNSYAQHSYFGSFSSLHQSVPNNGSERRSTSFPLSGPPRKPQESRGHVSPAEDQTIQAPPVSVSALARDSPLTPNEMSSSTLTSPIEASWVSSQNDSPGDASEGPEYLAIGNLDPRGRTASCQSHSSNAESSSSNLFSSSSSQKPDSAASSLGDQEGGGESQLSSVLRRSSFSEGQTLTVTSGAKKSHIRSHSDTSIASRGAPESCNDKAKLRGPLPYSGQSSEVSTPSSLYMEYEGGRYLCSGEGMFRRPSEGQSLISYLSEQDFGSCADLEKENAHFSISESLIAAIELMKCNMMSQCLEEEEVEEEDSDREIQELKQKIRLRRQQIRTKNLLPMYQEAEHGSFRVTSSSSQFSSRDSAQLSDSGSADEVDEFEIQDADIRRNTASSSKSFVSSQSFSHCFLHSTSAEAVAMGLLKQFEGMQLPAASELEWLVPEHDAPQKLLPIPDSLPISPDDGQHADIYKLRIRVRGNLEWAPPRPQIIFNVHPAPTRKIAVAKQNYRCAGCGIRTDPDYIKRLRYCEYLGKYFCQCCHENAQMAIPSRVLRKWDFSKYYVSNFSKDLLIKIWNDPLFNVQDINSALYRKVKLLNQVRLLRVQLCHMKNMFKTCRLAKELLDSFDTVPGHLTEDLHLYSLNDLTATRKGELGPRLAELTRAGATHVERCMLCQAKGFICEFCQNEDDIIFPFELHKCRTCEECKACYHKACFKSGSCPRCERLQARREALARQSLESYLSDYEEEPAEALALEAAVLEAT
# Some of the results follow.
# Columns and labels:
# Assay in all cases: log2 fold change, soluble protein after heating vs DMSO (PISA); higher = thermal stabilisation; K562 cells, 10 uM, 30 min; active = over 0.2 and 3.5 SD of the protein, either way, in both replicates (recomputed)
# [1] = compound: C[C@H](C1=CC=C(C=C1)C(=O)NC2=C3C=CNC3=NC=C2)N
# Procedure, shortened: (§1)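 K562 cells at 2×10^6 cells/mL were exposed to 10 μM compound for 30 min, then aliquots were heated for 3 min across 48°C-58°C, pooled, and extracted in PBS containing 0.5% NP-40 at 4°C. The supernatant after 21,000xg for 90 min was taken as soluble protein and measured by TMTpro 16plex LC-MS/MS with channel sums equalised. Thermal stability is reported relative to control samples, with values from duplicates. Fold changes are given on a log2 scale.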
# [2] = compound: C[C@H](Nc1ncnc2nc[nH]c12)c1cc2cccc(Cl)c2c(=O)n1-c1ccccc1 [duvelisib]
# Procedure, shortened: as §1
# [3] = compound: Cc1cc(Nc2cc(CN3CCOCC3)c3nc(C)c(Cc4ccc(Cl)cc4F)n3n2)n[nH]1 [gandotinib]
# Procedure, shortened: as §1
# [4] = compound: Cc1cc(SCc2sc(-c3ccc(C(F)(F)F)cc3)nc2C)ccc1OCC(=O)O
# Procedure, shortened: as §1
# [5] = compound: Cc1ccc(C(=O)N(CCCN)[C@@H](c2nc3cc(Cl)ccc3c(=O)n2Cc2ccccc2)C(C)C)cc1 [ispinesib]
# Procedure, shortened: as §1
# [6] = compound: CS(=O)(=O)c1ccc(-c2cnc(N)c(C(=O)Nc3ccccc3)n2)cc1
# Procedure, shortened: as §1
# [7] = compound: C[C@@H]1COCCN1C2=NC(=NC(=C2)C3(CC3)S(=O)(=O)C)C4=C5C=CNC5=CC=C4
# Procedure, shortened: as §1
# [8] = compound: Cc1cc(Nc2cc(N3CCN(C)CC3)nc(Sc3ccc(NC(=O)C4CC4)cc3)n2)n[nH]1 [tozasertib]
# Procedure, shortened: as §1
# [9] = compound: C[C@@H](Oc1cc(-c2cnn(C3CCNCC3)c2)cnc1N)c1c(Cl)ccc(F)c1Cl [crizotinib]
# Procedure, shortened: as §1
# [10] = compound: Cc1ccc(-n2nc(C(C)(C)C)cc2NC(=O)Nc2ccc(OCCN3CCOCC3)c3ccccc23)cc1 [doramapimod]
# Procedure, shortened: as §1
target,measurement,setting,value
"SDHB, A0A087WXX8",log2 fold change,[1],inactive: 0.159
same,log2 fold change,[2],inactive: 0.143
same,log2 fold change,[3],inactive: -0.152
same,log2 fold change,[4],inactive: 0.055
same,log2 fold change,[5],inactive: -0.053
SCGB1D2 (UniProt O95969),log2 fold change,[6],inactive: -0.108
same,log2 fold change,[7],inactive: 0.087
same,log2 fold change,[1],inactive: -0.295
same,log2 fold change,[2],inactive: -0.015
same,log2 fold change,[8],inactive: 0.152
same,log2 fold change,[4],inactive: -0.029
same,log2 fold change,[5],inactive: 0.252
RRP36 (UniProt Q96EU6),log2 fold change,[6],inactive: -0.115
same,log2 fold change,[7],inactive: -0.645
same,log2 fold change,[1],inactive: 0.271
same,log2 fold change,[3],inactive: 0.182
same,log2 fold change,[4],inactive: 0.022
same,log2 fold change,[5],inactive: 0.043
SAP130 isoform 3 (UniProt Q9H0E3),log2 fold change,[9],inactive: -0.016
same,log2 fold change,[1],inactive: 0.062
same,log2 fold change,[3],inactive: 0.024
same,log2 fold change,[10],inactive: 0.106
same,log2 fold change,[5],inactive: -0.115
SCOC (UniProt Q9UIL1),log2 fold change,[5],inactive: 0.368
SAFB2 (UniProt K7EQU4),log2 fold change,[9],inactive: -0.244
same,log2 fold change,[7],inactive: 0.275
same,log2 fold change,[10],inactive: -0.04
SCAMP2 (UniProt O15127),log2 fold change,[6],inactive: 0.019
same,log2 fold change,[7],inactive: -0.213
same,log2 fold change,[1],active: -0.544
same,log2 fold change,[3],inactive: 0.034
same,log2 fold change,[4],inactive: -0.065
same,log2 fold change,[5],inactive: -0.073
SDC3 (UniProt O75056),log2 fold change,[6],inactive: -0.047
same,log2 fold change,[7],inactive: 0.057
same,log2 fold change,[1],inactive: 0.151
same,log2 fold change,[3],inactive: -0.193
same,log2 fold change,[4],inactive: -0.19
SEC22A (UniProt Q96IW7),log2 fold change,[9],inactive: 0.136
same,log2 fold change,[1],inactive: -0.013
same,log2 fold change,[2],inactive: -0.055
same,log2 fold change,[3],inactive: 0.115
same,log2 fold change,[8],inactive: 0.017
same,log2 fold change,[4],inactive: -0.184
same,log2 fold change,[10],inactive: 0.056
same,log2 fold change,[5],inactive: -0.003
S100A16 (UniProt Q96FQ6),log2 fold change,[9],inactive: -0.043
same,log2 fold change,[7],inactive: -0.36
same,log2 fold change,[2],inactive: -0.122
same,log2 fold change,[8],inactive: 0.065
same,log2 fold change,[4],inactive: -0.064
same,log2 fold change,[10],inactive: 0.081
S100A10 (UniProt P60903),log2 fold change,[6],inactive: -0.004
same,log2 fold change,[1],inactive: 0.063
same,log2 fold change,[3],inactive: 0.131
RTN4 isoform 5 (UniProt Q9NQC3),log2 fold change,[9],inactive: 0.097
same,log2 fold change,[7],inactive: -0.016
same,log2 fold change,[1],inactive: 0.008
same,log2 fold change,[2],inactive: 0.41
same,log2 fold change,[3],inactive: -0.122
same,log2 fold change,[8],inactive: -0.194
same,log2 fold change,[4],inactive: 0.12
same,log2 fold change,[10],inactive: 0.014
same,log2 fold change,[5],inactive: 0.091
SCYL3 isoform 2 (UniProt Q8IZE3),log2 fold change,[9],inactive: -0.118
same,log2 fold change,[7],inactive: -0.106
same,log2 fold change,[1],inactive: -0.044
same,log2 fold change,[3],inactive: -0.069
same,log2 fold change,[4],inactive: -0.024
same,log2 fold change,[10],inactive: -0.01
same,log2 fold change,[5],inactive: -0.041
S100A4 (UniProt P26447),log2 fold change,[9],inactive: 0.056
same,log2 fold change,[10],inactive: -0.023
same,log2 fold change,[5],inactive: 0.034
SCAMP3 isoform 2 (UniProt O14828),log2 fold change,[9],inactive: 0.151
same,log2 fold change,[7],inactive: -0.05
same,log2 fold change,[10],inactive: 0.035
same,log2 fold change,[5],inactive: -0.175
SCN4A (UniProt P35499),log2 fold change,[2],inactive: 0.035
same,log2 fold change,[4],inactive: -0.204
S100A2 (UniProt P29034),log2 fold change,[1],inactive: -0.075
same,log2 fold change,[2],inactive: -0.062
same,log2 fold change,[8],inactive: -0.057
same,log2 fold change,[4],inactive: -0.224
S100A14 (UniProt Q9HCY8),log2 fold change,[2],inactive: -0.357
same,log2 fold change,[8],inactive: 0.149
same,log2 fold change,[4],inactive: -0.207
same,log2 fold change,[5],inactive: 0.16
RSL24D1 (UniProt Q9UHA3),log2 fold change,[6],inactive: -0.14
same,log2 fold change,[7],inactive: -0.711
same,log2 fold change,[8],inactive: 0.129
same,log2 fold change,[5],inactive: -0.084
SCRIB isoform 3 (UniProt Q14160),log2 fold change,[9],inactive: 0.059
same,log2 fold change,[1],inactive: 0.316
same,log2 fold change,[2],inactive: 0.154
same,log2 fold change,[3],inactive: -0.129
same,log2 fold change,[8],inactive: -0.099
same,log2 fold change,[4],inactive: 0.012
same,log2 fold change,[10],inactive: 0.254
same,log2 fold change,[5],inactive: 0.064
SAMD4A (UniProt Q9UPU9),log2 fold change,[9],inactive: 0.136
same,log2 fold change,[7],inactive: -0.015
same,log2 fold change,[2],inactive: -0.062
same,log2 fold change,[8],inactive: -0.405
same,log2 fold change,[4],inactive: -0.51
same,log2 fold change,[10],inactive: 0.049
RUBCN (UniProt Q92622),log2 fold change,[5],inactive: -0.457

# Looked up one by one from above (3):
target,measurement,setting,value
SEC22A (UniProt Q96IW7),log2 fold change,[2],inactive: -0.055
S100A16 (UniProt Q96FQ6),log2 fold change,[7],inactive: -0.36
"SDHB, A0A087WXX8",log2 fold change,[5],inactive: -0.053

# Two entries from above in a different format.
target | measurement | setting | value
RTN4 isoform 5 (UniProt Q9NQC3) | log2 fold change | [7] | inactive: -0.016
same | log2 fold change | [1] | inactive: 0.008
